Results published in patent US20040063161A1.
These are yes or no findings as the source states them, for the method shown. In cells and extracts the contact can be indirect. Some entries that bind do so weakly or less than the wild type.

Chains of the proteins cited; added tags and fusions are not shown. Lines headed by an entry give the natural chain unless they say otherwise; changes in a name come on top. Residues count along the entry.
UniProt P56817, residues 46-501: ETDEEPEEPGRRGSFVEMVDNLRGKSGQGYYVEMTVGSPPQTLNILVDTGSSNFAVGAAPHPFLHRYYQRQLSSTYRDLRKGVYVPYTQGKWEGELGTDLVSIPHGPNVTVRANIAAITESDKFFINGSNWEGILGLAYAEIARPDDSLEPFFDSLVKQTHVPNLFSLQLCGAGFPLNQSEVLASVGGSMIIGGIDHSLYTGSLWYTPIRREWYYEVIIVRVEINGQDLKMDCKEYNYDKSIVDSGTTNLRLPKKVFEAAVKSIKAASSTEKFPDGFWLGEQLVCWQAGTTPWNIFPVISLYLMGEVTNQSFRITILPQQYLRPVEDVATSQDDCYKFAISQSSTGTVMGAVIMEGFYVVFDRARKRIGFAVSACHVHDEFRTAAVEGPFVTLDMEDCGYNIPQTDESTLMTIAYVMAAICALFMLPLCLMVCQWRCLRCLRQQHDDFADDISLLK
UniProt O95197: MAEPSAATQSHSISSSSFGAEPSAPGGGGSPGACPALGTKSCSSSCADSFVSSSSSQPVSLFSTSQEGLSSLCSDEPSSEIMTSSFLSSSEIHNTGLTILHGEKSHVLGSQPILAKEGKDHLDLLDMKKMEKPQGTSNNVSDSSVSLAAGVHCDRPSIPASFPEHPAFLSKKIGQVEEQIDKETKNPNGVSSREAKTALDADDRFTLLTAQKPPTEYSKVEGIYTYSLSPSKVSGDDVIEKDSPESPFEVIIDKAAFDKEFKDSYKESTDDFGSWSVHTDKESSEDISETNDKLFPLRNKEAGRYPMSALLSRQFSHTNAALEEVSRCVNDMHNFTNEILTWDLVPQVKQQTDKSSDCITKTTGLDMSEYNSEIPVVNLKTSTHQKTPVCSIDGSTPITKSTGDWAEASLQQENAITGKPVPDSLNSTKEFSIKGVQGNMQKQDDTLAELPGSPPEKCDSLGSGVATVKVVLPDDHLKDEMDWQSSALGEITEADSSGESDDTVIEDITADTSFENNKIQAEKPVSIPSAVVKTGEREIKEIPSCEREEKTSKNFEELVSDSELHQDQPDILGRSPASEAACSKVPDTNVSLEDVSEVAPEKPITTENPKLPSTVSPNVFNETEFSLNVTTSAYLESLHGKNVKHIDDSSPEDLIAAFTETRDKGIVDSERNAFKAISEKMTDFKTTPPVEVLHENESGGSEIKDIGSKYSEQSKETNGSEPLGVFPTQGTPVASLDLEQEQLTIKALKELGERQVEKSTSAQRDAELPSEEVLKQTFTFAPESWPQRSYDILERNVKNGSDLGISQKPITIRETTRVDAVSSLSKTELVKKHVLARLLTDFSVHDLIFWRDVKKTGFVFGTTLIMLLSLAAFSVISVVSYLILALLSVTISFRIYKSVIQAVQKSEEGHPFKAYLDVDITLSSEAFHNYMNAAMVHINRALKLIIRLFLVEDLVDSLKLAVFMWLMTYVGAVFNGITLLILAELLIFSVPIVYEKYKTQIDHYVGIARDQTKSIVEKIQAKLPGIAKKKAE

Assays:
[1] = target: HA-tagged BACE1 (UniProt P56817); experiment: co-immunoprecipitation with anti-HA antibody and Western blot with anti-myc antibody; reciprocal immunoprecipitation with anti-myc antibody
[2] = target: HA-tagged BACE1 (UniProt P56817); experiment: co-immunoprecipitation with anti-HA antibody from HEK 293 cells expressing HA-tagged BACE1
[3] = target: HA-tagged BACE1 (UniProt P56817); experiment: co-immunoprecipitation with anti-HA antibody from cells transfected with HA-tagged BACE1; gel bands sequenced

binding [1] | binding [2] | binding [3] | Substance
binds |  |  | RTN 3 fused to His-Myc tag at the C-terminus (from UniProt O95197 2-1032)
 | binds | binds | endogenous RTN 3 (from UniProt O95197 2-1032)
